# Reference: the supplement of paper PMC12872613
# Where a name gives a salt, the structure may show the parent alone. The list shows a part of the results. Rule as the data show it: active = 0.7 or more and inactive = the rest. Repeats are few or missing, and single values can be far off.
# Test system: MiaPaCa-2 CLSA-25
# Test: cell death relative to DMSO vehicle (fraction); higher = more cytotoxic
# Conditions: 5 µM; treatment time 48 h; medium cystine 25 µM
row,Compound,cell death
1,COc1cc(F)c(C(C)C)cc1-c1ccc(C(F)(F)F)cc1CN1C(=O)O[C@H](c2cc(C(F)(F)F)cc(C(F)(F)F)c2)[C@@H]1C [Anacetrapib],inactive: -0.0104
2,COC(=O)[C@]12CCC(C)(C)C[C@H]1[C@H]1C(=O)C=C3[C@@]4(C)C=C(C#N)C(=O)C(C)(C)[C@@H]4CC[C@@]3(C)[C@]1(C)CC2 [Bardoxolone Methyl],active: 0.933
3,O=C(COCC(=O)Nc1ccc(Cl)cc1C(=O)O)Nc1cccc(-c2ccoc2)c1,inactive: 0.00722
4,O=C(O)CNC(=O)c1c(O)c2ccccc2n(Cc2ccccc2)c1=O,inactive: 0.574
5,Cc1nccnc1N1CCCCC1 [Modaline sulfate],inactive: 0.116
6,Cc1cc(-c2ccccc2)nnc1NCCN1CCOCC1 [Minaprine dihydrochloride],inactive: 0.046
7,COC(=O)[C@H](c1ccccc1Cl)N1CCc2sccc2C1 (racemic) [(±) Clopidogrel hydrogen sulfate],inactive: -0.0131
8,Cc1ccc(CN(CC(O)COc2cccc3[nH]ccc23)C(C)(C)C)cc1 (stereo not given),inactive: 0.148
9,N[C@@H](CS)C(=O)O [cysteine],inactive: 0.109
10,CC(C)c1cc(C(C)C)c(CC(=O)NS(=O)(=O)Oc2c(C(C)C)cccc2C(C)C)c(C(C)C)c1 [Avasimibe],active: 0.785
